From US20230003721A1, “MITOTHERAPEUTICS FOR THE TREATMENT OF BRAIN DISORDERS” (The University of Florida Research Foundation, Inc., priority 2019, published 2023)
For at least one compound, name, drawing or mass did not settle the structure.

System: primary neurons
Test: Mitochondrial morphology and neurite area after functional modulators
Assay type: cell-based, mouse
Experimental: Mitochondrial morphology and neurite area measurements. Mitochondrial morphology and neurite area were quantified using methods described by Varkuti et al, 2020. Briefly, Cre-dependent mitochondrial targeted GFP2 (mito-GFP) ROSA26 knock-in mice were crossed with Ai14 (007908, The Jackson Laboratory) expressing cytosolic-tdTomato, and the forebrain of P0 pups were isolated and primary neurons were cultured as described above. AAV9 virus containing the iCRE sequence driven by the neuron specific CaMKII promoter was added to the cell culture at plating and 75% of the media replaced 4 h after plating. […] Z-projected images of the green channel were preprocessed (background subtraction: rolling ball, radius=3; median filtering: radius=1) and somatic mitochondria were removed (see details in Varkuti et al, Science Advances 6 (2020) eaaw8702). Red channel images were also preprocessed (tubeness filter, soma removal). Preprocessed images were segmented by GE Developer software (object-based, kernel size: 3). […] The length and circularity measurements for mitochondria were aggregated using the median and the area for neurites using the sum. After removing empty fields and outlier values from the fields, aggregated field values were averaged to well values (4 fields/well, 12 wells/compound). Robust Z-scores were calculated using DMSO-treated wells for each well ((mediancompound−medianDMSO)/median absolute deviationDMSO), well values were averaged for each compound.
A high-content assay was developed in parallel to monitor aspects of mitochondrial dynamics in primary cultured neurons that conditionally express (Cre recombinase dependent) mitochondrial-tagged GFP and cytosolic tdTomato reporters (Varkuti et al., 2020). We monitored two aspects of neuritic mitochondrial dynamics: (1) the health of mitochondria as measured by the average circularity of axonal mitochondria, since defective mitochondria targeted for mitophagy become circular in shape, and (2) the balance between fission/fusion measured by the average length of dendritic mitochondria. […] FIG. 19A illustrates the results of surveying a collection of functional modulators selected from 5 different structural clusters (FIG. 17), quantified as robust z-scores relative to DMSO-treated control neurons.

| SMILES | Mitochondrial Morphology (significant change) | neuritic area (after 48 h of treatment) | Neurite Area (significant change) |
| --- | --- | --- | --- |
| Cc1ccc(-c2cc(C(F)(F)F)nn2-c2ccc(S(N)(=O)=O)cc2)cc1 [celecoxib] | elongated |  |  |
| O=c1[nH]c2ccccc2n1C1CCN(CCCC(c2ccc(F)cc2)c2ccc(F)cc2)CC1 [pimozide] | elongated | increase | increased |
